This passage reports binding results from doi:10.1101/2024.10.24.620053.

Sequences of proteins named here, by UniProt entry; tags and fusion partners are left off. A change or cut given only in a name is not applied to a line headed by its entry.
UniProt Q13283, whole entry: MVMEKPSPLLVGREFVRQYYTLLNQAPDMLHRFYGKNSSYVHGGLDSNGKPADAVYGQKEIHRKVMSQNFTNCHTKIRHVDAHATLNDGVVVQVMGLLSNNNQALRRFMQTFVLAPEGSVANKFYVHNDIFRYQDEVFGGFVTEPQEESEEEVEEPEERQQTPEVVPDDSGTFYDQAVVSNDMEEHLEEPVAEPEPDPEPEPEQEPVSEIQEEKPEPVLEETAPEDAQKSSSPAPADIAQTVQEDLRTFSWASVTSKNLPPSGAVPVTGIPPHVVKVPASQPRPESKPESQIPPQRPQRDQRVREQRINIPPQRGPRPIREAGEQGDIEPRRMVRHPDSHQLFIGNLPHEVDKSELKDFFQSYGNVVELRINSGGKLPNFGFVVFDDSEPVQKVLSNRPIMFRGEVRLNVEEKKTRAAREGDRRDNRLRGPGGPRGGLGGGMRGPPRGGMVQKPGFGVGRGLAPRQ
UniProt Q9UHD9, whole entry: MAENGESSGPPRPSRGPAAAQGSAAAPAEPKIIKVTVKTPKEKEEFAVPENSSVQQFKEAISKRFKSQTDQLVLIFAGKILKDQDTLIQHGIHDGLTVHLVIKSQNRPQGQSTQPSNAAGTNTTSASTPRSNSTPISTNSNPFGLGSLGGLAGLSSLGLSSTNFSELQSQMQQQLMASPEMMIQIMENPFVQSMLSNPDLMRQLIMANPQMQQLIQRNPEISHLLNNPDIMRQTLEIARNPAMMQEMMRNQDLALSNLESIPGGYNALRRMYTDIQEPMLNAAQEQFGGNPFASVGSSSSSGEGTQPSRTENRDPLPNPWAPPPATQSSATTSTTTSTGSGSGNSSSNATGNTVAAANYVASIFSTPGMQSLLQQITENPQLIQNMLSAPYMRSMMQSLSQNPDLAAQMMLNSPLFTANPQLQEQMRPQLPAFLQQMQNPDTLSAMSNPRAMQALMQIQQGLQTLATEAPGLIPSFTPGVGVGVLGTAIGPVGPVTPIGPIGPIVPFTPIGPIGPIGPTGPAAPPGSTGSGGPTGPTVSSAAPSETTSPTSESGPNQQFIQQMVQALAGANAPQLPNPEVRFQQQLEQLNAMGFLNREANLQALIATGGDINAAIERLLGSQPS

No constants are given. Whether binding was seen depends on the method and setting. Binding seen in cells or lysates may run through a third protein. Some entries that bind do so weakly or less than the wild type. For some of these results: Sequences can lack the tags named with a protein.

Common to all, as to test: co-IP
The target in test [1] is G3BP1 (human (endogenous in HeLa)), Q13283. As to conditions: remark: other sources report otherwise.
Test [2] deals with T1, PEG10 gag-pol (human (endogenous in HEK293 and HeLa)) (UniProt Q86TG7).
T1 sequence: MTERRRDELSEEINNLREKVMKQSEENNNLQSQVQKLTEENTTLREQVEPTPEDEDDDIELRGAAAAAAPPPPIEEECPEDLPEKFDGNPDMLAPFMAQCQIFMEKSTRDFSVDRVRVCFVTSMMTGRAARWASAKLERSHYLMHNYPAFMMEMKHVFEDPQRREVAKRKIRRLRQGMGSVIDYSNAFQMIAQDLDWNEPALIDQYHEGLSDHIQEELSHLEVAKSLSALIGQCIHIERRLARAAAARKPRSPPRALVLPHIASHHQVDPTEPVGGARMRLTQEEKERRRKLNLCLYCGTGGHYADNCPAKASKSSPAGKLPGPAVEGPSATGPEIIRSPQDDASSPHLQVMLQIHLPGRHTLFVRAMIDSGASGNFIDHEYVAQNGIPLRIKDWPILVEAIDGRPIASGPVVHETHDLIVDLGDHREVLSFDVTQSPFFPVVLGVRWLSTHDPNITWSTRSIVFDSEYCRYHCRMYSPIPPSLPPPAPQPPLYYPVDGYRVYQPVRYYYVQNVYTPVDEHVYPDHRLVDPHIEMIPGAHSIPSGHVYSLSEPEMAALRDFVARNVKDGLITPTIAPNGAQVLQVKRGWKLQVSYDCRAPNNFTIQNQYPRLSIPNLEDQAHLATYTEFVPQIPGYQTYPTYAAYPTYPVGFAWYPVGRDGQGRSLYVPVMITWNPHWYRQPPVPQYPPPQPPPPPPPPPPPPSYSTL

In test [3] the target is UBQLN2 (human (endogenous in HEK293 and HeLa)) (UniProt Q9UHD9).
The target in test [4] is G3BP1 (human (endogenous in HeLa)) (UniProt Q13283).

B1: ATXN2, Q99700 1-1313 (protein)
chain: MRSAAAAPRSPAVATESRRFAAARWPGWRSLQRPARRSGRGGGGAAPGPYPSAAPPPPGPGPPPSRQSSPPSASDCFGSNGNGGGAFRPGSRRLLGLGGPPRPFVVLLLPLASPGAPPAAPTRASPLGARASPPRSGVSLARPAPGCPRPACEPVYGPLTMSLKPQQQQQQQQQQQQQQQQQQQQQQQPPPAAANVRKPGGSGLLASPAAAPSPSSSSVSSSSATAPSSVVAATSGGGRPGLGRGRNSNKGLPQSTISFDGIYANMRMVHILTSVVGSKCEVQVKNGGIYEGVFKTYSPKCDLVLDAAHEKSTESSSGPKREEIMESILFKCSDFVVVQFKDMDSSYAKRDAFTDSAISAKVNGEHKEKDLEPWDAGELTANEELEALENDVSNGWDPNDMFRYNEENYGVVSTYDSSLSSYTVPLERDNSEEFLKREARANQLAEEIESSAQYKARVALENDDRSEEEKYTAVQRNSSEREGHSINTRENKYIPPGQRNREVISWGSGRQNSPRMGQPGSGSMPSRSTSHTSDFNPNSGSDQRVVNGGVPWPSPCPSPSSRPPSRYQSGPNSLPPRAATPTRPPSRPPSRPSRPPSHPSAHGSPAPVSTMPKRMSSEGPPRMSPKAQRHPRNHRVSAGRGSISSGLEFVSHNPPSEAATPPVARTSPSGGTWSSVVSGVPRLSPKTHRPRSPRQNSIGNTPSGPVLASPQAGIIPTEAVAMPIPAASPTPASPASNRAVTPSSEAKDSRLQDQRQNSPAGNKENIKPNETSPSFSKAENKGISPVVSEHRKQIDDLKKFKNDFRLQPSSTSESMDQLLNKNREGEKSRDLIKDKIEPSAKDSFIENSSSNCTSGSSKPNSPSISPSILSNTEHKRGPEVTSQGVQTSSPACKQEKDDKEEKKDAAEQVRKSTLNPNAKEFNPRSFSQPKPSTTPTSPRPQAQPSPSMVGHQQPTPVYTQPVCFAPNMMYPVPVSPGVQPLYPIPMTPMPVNQAKTYRAVPNMPQQRQDQHHQSAMMHPASAAGPPIAATPPAYSTQYVAYSPQQFPNQPLVQHVPHYQSQHPHVYSPVIQGNARMMAPPTHAQPGLVSSSATQYGAHEQTHAMYACPKLPYNKETSPSFYFAISTGSLAQQYAHPNATLHPHTPHPQPSATPTGQQQSQHGGSHPAPSPVQHHQHQAAQALHLASPQQQSAIYHAGLAPTPPSMTPASNTQSPQNSFPAAQQTVFTIHPSHVQPAYTNPPHMAHVPQAHVQSGMVPSHPTAHAPMMLMTTQPPGGPQAALAQSALQPIPVSTTAHFPYMTHPSVQAHHQQQL
Turning to B1, the binding entry in test [1] is given as “binds”.

B2: HA-RTL8C ΔN (protein, UniProt A6ZKI3)
chain: MPIPFPETFDGDTDRLPEFIVQTGSYMFVDENTFSSDALKVTFLITRLTGPALQWVIPYIKKESPLLNDYRGFLAEMKRVFGWEEDEDF
For B2, the binding entry in test [2] and in test [3] was “no binding” throughout.

B3: TIAR (protein, UniProt Q01085 1-375)
chain: MMEDDGQPRTLYVGNLSRDVTEVLILQLFSQIGPCKSCKMITEHTSNDPYCFVEFYEHRDAAAALAAMNGRKILGKEVKVNWATTPSSQKKDTSNHFHVFVGDLSPEITTEDIKSAFAPFGKISDARVVKDMATGKSKGYGFVSFYNKLDAENAIVHMGGQWLGGRQIRTNWATRKPPAPKSTQENNTKQLRFEDVVNQSSPKNCTVYCGGIASGLTDQLMRQTFSPFGQIMEIRVFPEKGYSFVRFSTHESAAHAIVSVNGTTIEGHVVKCYWGKESPDMTKNFQQVDYSQWGQWSQVYGNPQQYGQYMANGWQVPPYGVYGQPWNQQGFGVDQSPSAAWMGGFGAQPPQGQAPPPVIPPPNQAGYGMASYQTQ
Turning to B3, the binding result in test [4] was “binds”.
